# Results published in doi:10.1101/2022.12.23.521780.
# Chains of the proteins cited; added tags and fusions are not shown.
# UniProt P03372: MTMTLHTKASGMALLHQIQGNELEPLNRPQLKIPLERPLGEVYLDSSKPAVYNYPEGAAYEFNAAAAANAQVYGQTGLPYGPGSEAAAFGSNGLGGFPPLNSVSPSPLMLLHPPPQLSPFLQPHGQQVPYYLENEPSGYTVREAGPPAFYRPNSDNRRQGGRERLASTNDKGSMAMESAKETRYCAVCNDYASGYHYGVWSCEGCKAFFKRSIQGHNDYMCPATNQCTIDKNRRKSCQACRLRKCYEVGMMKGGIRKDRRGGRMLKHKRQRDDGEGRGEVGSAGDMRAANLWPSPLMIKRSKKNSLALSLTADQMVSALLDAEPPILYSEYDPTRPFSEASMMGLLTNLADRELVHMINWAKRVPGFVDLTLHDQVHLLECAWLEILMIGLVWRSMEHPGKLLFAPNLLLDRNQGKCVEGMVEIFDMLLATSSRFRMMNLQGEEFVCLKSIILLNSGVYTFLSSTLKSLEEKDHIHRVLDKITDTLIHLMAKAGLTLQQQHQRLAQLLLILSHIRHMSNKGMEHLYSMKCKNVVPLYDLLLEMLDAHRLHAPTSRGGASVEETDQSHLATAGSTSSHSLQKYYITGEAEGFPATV
# Read-outs that look alike come from different tables or passages of the source. These are yes or no findings as the source states them, for the method shown. In cells and extracts the contact can be indirect. Some results given as binding are weak or reduced against the parent protein; the word gives no strength. For part of these data: Where a sequence is shown, tags or fusion partners need not be part of it.
# Assays:
# Assay in all cases: co-IP
# [1] = biological target: T1, Endogenous MYSM1 (human (endogenous in MCF-7 and T47D)) (UniProt Q5VVJ2)
# T1 sequence: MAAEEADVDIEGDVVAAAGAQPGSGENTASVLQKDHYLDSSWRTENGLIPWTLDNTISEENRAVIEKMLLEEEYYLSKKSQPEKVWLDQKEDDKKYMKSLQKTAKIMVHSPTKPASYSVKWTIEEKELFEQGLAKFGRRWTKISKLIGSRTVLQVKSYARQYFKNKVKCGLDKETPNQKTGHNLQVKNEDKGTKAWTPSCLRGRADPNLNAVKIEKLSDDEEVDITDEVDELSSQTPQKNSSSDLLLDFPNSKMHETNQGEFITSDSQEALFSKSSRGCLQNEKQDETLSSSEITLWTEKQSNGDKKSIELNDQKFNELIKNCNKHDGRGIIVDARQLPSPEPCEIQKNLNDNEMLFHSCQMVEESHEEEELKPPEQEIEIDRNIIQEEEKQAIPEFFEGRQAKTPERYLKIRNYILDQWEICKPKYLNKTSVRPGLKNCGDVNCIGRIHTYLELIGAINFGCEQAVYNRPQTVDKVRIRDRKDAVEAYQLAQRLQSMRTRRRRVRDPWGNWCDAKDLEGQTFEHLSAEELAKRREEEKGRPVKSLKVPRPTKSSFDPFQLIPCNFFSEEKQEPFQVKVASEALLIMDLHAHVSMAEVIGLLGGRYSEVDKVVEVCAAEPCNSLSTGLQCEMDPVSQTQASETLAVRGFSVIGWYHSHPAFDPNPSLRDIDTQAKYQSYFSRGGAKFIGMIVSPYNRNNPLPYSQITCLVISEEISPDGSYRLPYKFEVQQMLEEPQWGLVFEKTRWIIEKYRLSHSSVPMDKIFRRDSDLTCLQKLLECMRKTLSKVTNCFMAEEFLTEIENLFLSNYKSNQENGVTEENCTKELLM
# [2] = biological target: T2, FLAG-tagged MYSM1 (Myb like, SWIRM and MPN domains 1), full length (human) (UniProt Q5VVJ2)
# T2 sequence: T1 sequence
# [3] = biological target: T2, FLAG-tagged MYSM1 (Myb like, SWIRM and MPN domains 1), full length (human); remark: listed apart in the source
binding [1],binding [2],binding [3],Substance
binds,–,–,Endogenous estrogen receptor alpha (ERα) (from UniProt P03372 1-595)
–,binds,binds,"Estrogen receptor alpha (ERα), ectopically expressed (from UniProt P03372 1-595)"
